Results reported in PMC12196856.
For at least one entry, the source does not settle the construct or the ends of the probe.

Experiments:
[1] = test system: LpBLH3 (Lilium pumilum); experiment: competition with a labelled probe; settings: competes against biotin-labeled N1; BeyoGold Chemiluminescent EMSA Kit (Beyotime), manufacturer's protocol; recombinant protein; protein details: His (pET21a)
[2] = test system: LpBLH3 (Lilium pumilum); experiment: EMSA; settings: BeyoGold Chemiluminescent EMSA Kit (Beyotime), manufacturer's protocol; recombinant protein; protein details: His (pET21a); label: 5' biotin

Sequence	binding result [1]	binding result [2]
TGAAAACATGGACGATTATATACCTCCATTTGTCAAATTG (double strand) [LpABI5-TGGA unlabeled competitor]	binds	–
TGAAAACATGGACGATTATATACCTCCATTTGTCAAATTG (double strand) [LpABI5-TGGA probe]	–	binds
